{"sequences": {"note": "The chains behind the UniProt entries cited, without tags or fusion partners. Where a name states a change or a piece, a line headed by the entry shows the natural chain unless it says otherwise.", "UniProt P18054": "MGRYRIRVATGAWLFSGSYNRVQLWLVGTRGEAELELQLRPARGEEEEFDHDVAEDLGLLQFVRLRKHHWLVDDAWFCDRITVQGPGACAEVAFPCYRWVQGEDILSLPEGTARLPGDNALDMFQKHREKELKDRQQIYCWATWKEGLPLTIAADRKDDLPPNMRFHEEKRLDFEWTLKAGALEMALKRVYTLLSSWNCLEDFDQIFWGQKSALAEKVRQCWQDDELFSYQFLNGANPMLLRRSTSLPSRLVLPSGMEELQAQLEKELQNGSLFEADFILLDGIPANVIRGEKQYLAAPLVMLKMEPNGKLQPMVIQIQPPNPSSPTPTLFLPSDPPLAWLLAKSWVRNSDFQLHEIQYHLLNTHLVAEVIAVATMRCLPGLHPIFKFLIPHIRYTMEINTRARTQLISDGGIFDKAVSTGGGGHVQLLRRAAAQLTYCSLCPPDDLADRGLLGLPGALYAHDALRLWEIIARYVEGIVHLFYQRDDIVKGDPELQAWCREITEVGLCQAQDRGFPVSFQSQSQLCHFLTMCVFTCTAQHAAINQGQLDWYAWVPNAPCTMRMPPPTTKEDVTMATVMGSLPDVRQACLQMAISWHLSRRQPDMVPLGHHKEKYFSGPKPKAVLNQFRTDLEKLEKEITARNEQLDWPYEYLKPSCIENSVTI"}, "source": "PubChem BioAssay AID1671190", "about": "(National Center for Advancing Translational Sciences (NCATS), 2021)", "note": "About 6,100 (1.1%) of roughly 580,000 compounds were called active. The shares of active, inactive and inconclusive entries below differ from those in the screen. The call rests on the fitted dose curve; in most records, active means well fitted inhibition curve with a large enough effect; inconclusive means small, poorly fitted or top-dose-only effect, or another doubt; inactive means no such curve, though single readings can be large or run the other way. Potencies beside an inconclusive call are fits to weak or partial responses and may not hold up. On the % scale 0 is the no-effect control and ±100 the full control effect; potency means the concentration at half of the fitted maximal effect.", "data": [{"biological_target": "Polyunsaturated fatty acid lipoxygenase ALOX12 (Homo sapiens) (UniProt P18054)", "test": "Primary qHTS assay for inhibitors of human arachidonate 12S-lipoxygenase (ALOX12): Round 2", "settings": "purified 12hLO, xylenol orange hydroperoxide absorbance; activity change, negative = inhibition: at 108 µM (top of the series) unless noted", "summary_of_the_method": "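Purified human 12hLO at 150 nM in 25 mM Hepes, 0.01% Triton X-100, pH 7.0, preincubated 15 min at room temperature with compound. Reaction started with 40 uM arachidonic acid, 30 min at room temperature. Hydroperoxide measured by Fe-xylenol orange, 573/405 nm absorbance ratio.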", "values": [{"smiles": "Clc1ccc(-c2nc3ccc(Br)cn3c2Cc2ccccc2)cc1", "Potency": "inconclusive: 44.7 µM [inhibitor, partial curve, poor fit]"}, {"smiles": "Cc1ccc(S(=O)(=O)Nc2ccc(-c3ccc(N4CCCCCC4)nn3)cc2)c(C)c1", "activity change, negative = inhibition": "inactive: -24.3%"}, {"smiles": "Cc1ccc(-c2cc(NC(=O)C(C)Oc3cccc(C)c3C)on2)cc1", "note": "(stereo not given)", "activity change, negative = inhibition": "inactive: -13.4%"}, {"smiles": "Cc1c(Cl)cccc1NC(=S)NCCc1ccccc1", "Potency": "inconclusive: 35.5 µM [inhibitor, partial curve, poor fit]"}, {"smiles": "O=C(O)c1cccc(-n2cccc2/C=C\\[N+](=O)[O-])c1", "Potency": "inconclusive: 8.91 µM [inhibitor, partial curve, poor fit]"}, {"smiles": "CCC(C(=O)O)N1C(=O)/C(=C/C(C)=C/c2ccccc2)SC1=S", "note": "(stereo not given)", "Potency": "inconclusive: 44.7 µM [inhibitor, partial curve, poor fit]"}, {"smiles": "CCOc1ccccc1C1C(C(=O)Nc2ccccc2)=C(C)Nc2nc(-c3ccccc3)nn21", "note": "(stereo not given)", "Potency": "inconclusive: 100 µM [inhibitor, partial curve, poor fit]"}, {"smiles": "Cc1ccc(NCc2cc3cc4c(cc3n(CC(=O)Nc3ccc(C)cc3)c2=O)OCCO4)cc1", "Potency": "inconclusive: 28.2 µM [inhibitor, partial curve, poor fit]"}, {"smiles": "CC(=O)N1CCN(C(=O)CCc2ccnc(N3CCOCC3)c2)CC1", "activity change, negative = inhibition": "inactive: 14.7%"}, {"smiles": "Cc1ccnc(NC(=O)c2cc([N+](=O)[O-])cc([N+](=O)[O-])c2)c1", "Potency": "inconclusive: 28.2 µM [inhibitor, partial curve, poor fit]"}, {"smiles": "CC(C)NC(=O)CSc1cn(CC(=O)N2CCCCCC2)c2ccccc12", "Potency": "inconclusive: 15.8 µM [inhibitor, partial curve, poor fit]"}, {"smiles": "O=C(NC(=S)NCCC1=CCCCC1)c1cncc(Br)c1", "Potency": "inconclusive: 79.4 µM [inhibitor, partial curve, poor fit]"}, {"smiles": "CCCN(CCC)CC(O)Cn1c2ccccc2c2ccccc21", "note": "(stereo not given)", "activity change, negative = inhibition": "inactive: -0.912%"}, {"smiles": "CCCn1nc2cc(C(=O)NCc3ccccc3OC)ccc2c1OCC", "Potency": "inconclusive: 100 µM [inhibitor, partial curve, poor fit]"}, {"smiles": "CC(C)c1ccc(Nc2nc(CC(=O)O)cs2)cc1", "Potency": "inconclusive: 50.1 µM [inhibitor, partial curve, poor fit]"}, {"smiles": "N#Cc1ccccc1-n1c(N)c(C(=O)N2CCCC2)sc1=S", "Potency": "inconclusive: 35.5 µM [inhibitor, partial curve, poor fit]"}, {"smiles": "CC(=O)Nc1ccc(NC(=O)c2cc(C(C)C)nc3ccccc23)cc1", "activity change, negative = inhibition": "inactive: -10.9%"}, {"smiles": "CC(=O)c1ccc(NC(=O)C(C)Sc2ccccc2C(=O)NCC(=O)C(C)(C)C)cc1", "note": "(stereo not given)", "Potency": "inconclusive: 3.55 µM [inhibitor, full curve, poor fit]"}, {"smiles": "Cc1ccc(Cl)cc1NC(=O)CN1C(=O)c2ccccc2Sc2ncccc21", "Potency": "inconclusive: 112 µM [inhibitor, partial curve, poor fit]"}, {"smiles": "CCC(C)c1ccc(NC(=S)NC2CCN(Cc3ccccc3)CC2)cc1", "note": "(stereo not given)", "Potency": "inconclusive: 50.1 µM [inhibitor, partial curve, poor fit]"}, {"smiles": "CCc1ccc(-c2nc(CS(=O)CC(=O)NCc3ccc(F)cc3)c(C)o2)cc1", "note": "(stereo not given)", "Potency": "inconclusive: 89.1 µM [inhibitor, partial curve, poor fit]"}, {"smiles": "CC(=O)Nc1cccc(C(=O)OCC(=O)c2ccc[nH]2)c1", "activity change, negative = inhibition": "inactive: 10.1%"}, {"smiles": "COc1ccc(CCNC(=O)c2ccc3c(c2)nc2n3CCCCC2)cc1OC", "activity change, negative = inhibition": "inactive: -1.25%"}, {"smiles": "CCOCCn1c(=O)c2c(nc(-n3nc(C)c(C)c3C)n2CC)n(C)c1=O", "Potency": "inconclusive: 89.1 µM [inhibitor, single point]"}, {"smiles": "CC(=O)Nc1ccc(SCC(O)COc2ccccc2C(C)(C)C)cc1", "note": "(stereo not given)", "Potency": "inconclusive: 158 µM [inhibitor, partial curve, poor fit]"}, {"smiles": "CCN1CCN(c2ccc(C(=O)OC)cc2NC(=O)COc2ccc(C(C)(C)C)cc2)CC1", "Potency": "inconclusive: 35.5 µM [inhibitor, partial curve, poor fit]"}, {"smiles": "COc1cccc(-c2cccc(NC(=O)C3CCN(C4CCC4)CC3)c2)c1", "Potency": "inconclusive: 79.4 µM [inhibitor, partial curve, poor fit]"}, {"smiles": "O=C(CC(c1ccc(Cl)cc1)c1c[nH]c2ccc([N+](=O)[O-])cc12)N1CCOCC1", "note": "(stereo not given)", "Potency": "active: 8.91 µM"}, {"smiles": "O=C(CCCn1c(=O)c2cccn2c2ccc(F)cc21)N1CCN(c2ccccn2)CC1", "Potency": "inconclusive: 79.4 µM [inhibitor, single point]"}, {"smiles": "Cc1cc(C2=NNC(=NCCc3ccccc3)SC2)c(C)n1-c1c(C)n(C)n(-c2ccccc2)c1=O", "Potency": "inconclusive: 79.4 µM [inhibitor, partial curve, poor fit]"}, {"smiles": "Fc1cccc(CN2CCN3CCCC3C2C2CCCCC2)c1", "note": "(stereo not given)", "Potency": "inconclusive: 17.8 µM [inhibitor, full curve, poor fit]"}, {"smiles": "O=C(c1cccc(Cl)c1)N1CCCC(c2ccc(Cl)cc2)=N1", "activity change, negative = inhibition": "inactive: 8.21% [at 57.4 µM]"}, {"smiles": "CCNc1c(NC(=O)Nc2cccc(Cl)c2C)c(=O)oc2ccccc12", "Potency": "inconclusive: 39.8 µM [inhibitor, single point]"}, {"smiles": "CC(C)N1C[C@H](C(=O)NCCC2=CCCCC2)[C@H](C(=O)O)C1", "activity change, negative = inhibition": "inactive: 2.58%"}, {"smiles": "Cc1sc2ccn(Cc3ccc(F)cc3)c(=O)c2c1C(=O)NC1CCCC1", "activity change, negative = inhibition": "inactive: 60.8%"}, {"smiles": "CC(C)c1ccccc1NC(=O)C1CC2CCC1C2", "note": "(stereo not given)", "activity change, negative = inhibition": "inactive: -3.05%"}, {"smiles": "S=c1[nH]nc(-c2ccco2)n1/N=C/C=C/c1ccccc1", "Potency": "inconclusive: 89.1 µM [inhibitor, partial curve, poor fit]"}, {"smiles": "CC(=O)Nc1ccc(NS(=O)(=O)c2cc(Cl)ccc2Cl)cc1", "Potency": "inconclusive: 56.2 µM [inhibitor, partial curve, poor fit]"}, {"smiles": "COc1ccc(NC(=O)Cn2nc(N3CCCCC3)c3ccccc3c2=O)cc1", "activity change, negative = inhibition": "inactive: 0.965%"}, {"smiles": "O=S(=O)(c1ccc2nc(-c3ccccc3)[nH]c2c1)N1CCN(c2cccc(Cl)c2)CC1", "activity change, negative = inhibition": "inactive: -24.1%"}, {"smiles": "CCc1ccc(-c2cc(C(=O)NCc3cccnc3)c3ccccc3n2)cc1", "Potency": "inconclusive: 7.94 µM [inhibitor, full curve, poor fit]"}, {"smiles": "CC(=O)c1ccc(NC(=O)c2nc(-c3ccccc3)n(-c3ccc(C)cc3)n2)cc1", "activity change, negative = inhibition": "inactive: -18.8%"}, {"smiles": "COc1ccc(-c2csc(NC3CCCCC3)n2)c(OC)c1", "Potency": "inconclusive: 44.7 µM [inhibitor, partial curve, poor fit]"}, {"smiles": "O=C1N(c2ccccc2)C(c2ccccc2)C12CCCCC2", "note": "(stereo not given)", "Potency": "inconclusive: 31.6 µM [inhibitor, single point]"}, {"smiles": "O=C(NCc1cccc(Cl)c1)C1CCCN(c2nn3cc(-c4ccc(F)cc4)nc3s2)C1", "note": "(stereo not given)", "activity change, negative = inhibition": "inactive: -18.7%"}]}]}
